The target of the experiment is T1, c-myc-tagged CIITA (major histocompatibility complex class II transactivator), in osteocytes (UniProt P33076).
T1 sequence: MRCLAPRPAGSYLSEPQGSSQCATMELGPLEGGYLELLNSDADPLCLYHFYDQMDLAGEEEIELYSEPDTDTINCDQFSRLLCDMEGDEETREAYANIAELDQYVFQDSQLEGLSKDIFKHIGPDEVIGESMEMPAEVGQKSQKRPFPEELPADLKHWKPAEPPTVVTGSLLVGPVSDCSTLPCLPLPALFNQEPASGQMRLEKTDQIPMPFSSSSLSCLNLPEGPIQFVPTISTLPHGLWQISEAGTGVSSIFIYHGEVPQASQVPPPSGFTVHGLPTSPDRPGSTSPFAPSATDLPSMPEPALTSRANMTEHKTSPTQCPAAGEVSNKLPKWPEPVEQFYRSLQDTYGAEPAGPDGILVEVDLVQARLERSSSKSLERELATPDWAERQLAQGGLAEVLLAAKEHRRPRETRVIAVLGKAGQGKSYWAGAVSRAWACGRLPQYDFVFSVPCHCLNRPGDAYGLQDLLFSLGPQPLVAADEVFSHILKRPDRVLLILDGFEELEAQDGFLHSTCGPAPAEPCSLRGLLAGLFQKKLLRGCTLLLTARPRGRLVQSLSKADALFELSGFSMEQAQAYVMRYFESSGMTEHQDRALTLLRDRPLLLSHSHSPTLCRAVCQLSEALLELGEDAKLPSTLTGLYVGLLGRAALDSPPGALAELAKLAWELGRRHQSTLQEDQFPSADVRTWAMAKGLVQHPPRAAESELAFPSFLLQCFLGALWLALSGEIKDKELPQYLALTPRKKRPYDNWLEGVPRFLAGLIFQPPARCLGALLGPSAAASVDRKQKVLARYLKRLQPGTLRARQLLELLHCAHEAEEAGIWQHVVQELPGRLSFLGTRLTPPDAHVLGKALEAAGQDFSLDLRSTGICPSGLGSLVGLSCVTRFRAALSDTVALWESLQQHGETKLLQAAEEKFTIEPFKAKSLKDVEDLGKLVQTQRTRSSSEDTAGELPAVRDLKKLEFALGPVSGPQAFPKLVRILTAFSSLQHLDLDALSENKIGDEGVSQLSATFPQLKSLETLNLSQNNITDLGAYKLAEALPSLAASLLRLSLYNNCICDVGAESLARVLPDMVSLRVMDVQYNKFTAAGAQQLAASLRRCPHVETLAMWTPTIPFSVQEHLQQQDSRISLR
Briefly: affinity purification with mass spectrometry; lysate of human osteocytes transfected with c-myc-CIITA pulled down by anti-c-Myc agarose; SDS-PAGE bands digested with trypsin, nano-LC/MS/MS; empty vector as control.

Protein sequences, listed by entry. Tags and fused reporters are not part of them.
UniProt P05549: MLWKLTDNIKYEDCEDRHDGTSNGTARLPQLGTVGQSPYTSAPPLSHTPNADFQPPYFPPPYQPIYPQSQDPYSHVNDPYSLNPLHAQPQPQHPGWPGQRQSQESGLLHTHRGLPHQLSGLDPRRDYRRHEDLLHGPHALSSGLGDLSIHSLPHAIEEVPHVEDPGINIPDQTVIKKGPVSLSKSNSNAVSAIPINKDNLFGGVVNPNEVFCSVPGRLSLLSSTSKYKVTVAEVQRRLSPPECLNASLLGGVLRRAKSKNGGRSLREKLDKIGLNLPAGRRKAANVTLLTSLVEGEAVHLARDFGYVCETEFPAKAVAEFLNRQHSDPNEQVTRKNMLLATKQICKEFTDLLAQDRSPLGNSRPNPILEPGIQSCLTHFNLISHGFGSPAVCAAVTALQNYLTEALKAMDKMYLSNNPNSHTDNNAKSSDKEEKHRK

These are yes or no findings as the source states them, for the method shown. Binding seen in cells or lysates may run through a third protein. A yes stands for co-enrichment or nearness to the bait. Other partners may have been found. Tags and fused reporters may be left off the sequences shown.

On to “transcriptional factor AP2α, in osteocytes transfected with c-myc-CIITA (from UniProt P05549 1-437)”, for which the binding result was “binds”.

The record behind these values is PMC9237076.
